Test results published in publication PMC7819943, “Rice protein-binding microarrays: a tool to detect cis-acting elements near promoter regions in rice”.
Some of the results follow.

Chains of the proteins cited; added tags and fusions are not shown.
UniProt Q0JBA9, entry or part of it: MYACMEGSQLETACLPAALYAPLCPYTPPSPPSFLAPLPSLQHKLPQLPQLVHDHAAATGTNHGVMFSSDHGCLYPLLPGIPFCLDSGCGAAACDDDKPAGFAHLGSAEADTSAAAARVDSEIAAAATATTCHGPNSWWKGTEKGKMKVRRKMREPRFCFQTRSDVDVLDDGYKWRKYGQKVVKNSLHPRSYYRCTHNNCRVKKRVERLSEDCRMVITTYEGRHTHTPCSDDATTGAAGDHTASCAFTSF

These sequences were tested against OsWRKY34 (Oryza sativa, UniProt Q0JBA9 1-250) (assay: protein-binding microarray (RPBM); PBS, 2% BSA, 51.3 ng/ul salmon testes DNA, 50 uM zinc acetate, 200 nM TF, 25 C, 1 h; high values mean tight binding). Conditions: protein: recombinant; tags: N-terminal polyhistidine and DsRed monomer fusion (pET32a); label: CyDye5-dUTP incorporated in the synthesized complementary strand; 3' TTTTT single-stranded linker to array surface; dsDNA, one strand shown.
Procedure, shortened: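 The binding signal is fluorescence intensity per feature, in arbitrary units, read on an Axon 4000B scanner. Polyhistidine- and DsRed-tagged transcription factors (N-terminal fusions) from E. coli BL21-CodonPlus were purified on Ni–NTA and applied at 200 nM for 1 h at 25 °C to a double-stranded, BSA-blocked custom Agilent array in buffer with 50 µM zinc acetate.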

Sequence | binding signal
ATTCGGTTGATTATTATCTCTGCTTGACTAATACTACTCACGGAGTCACCTAGTGCAG | 10100 fluorescence intensity (a.u.)
GTGCTCGATGCTCGATGCCCTCCTTTTCCGCCATCTTTTTCGGAGTCACCTAGTGCAG | 10200 fluorescence intensity (a.u.)
ACAACCCTCTTCCAATCATTTCTACCTACTTTCTTAATACCGGAGTCACCTAGTGCAG | 8460 fluorescence intensity (a.u.)
AATATTGTGTGTTGTTGTGTTGTCATCTGATATATTTTAGCGGAGTCACCTAGTGCAG | 10400 fluorescence intensity (a.u.)
TCATACTTCCATATCTTATTCCACACTTGGTTGTAGTTTTCGGAGTCACCTAGTGCAG | 9010 fluorescence intensity (a.u.)
TATGGTATTTGGGTTAAAGAACGAAAATCGAACTCGCTGTCGGAGTCACCTAGTGCAG | 8160 fluorescence intensity (a.u.)
CGATCGATCACTACACCTTCACTTTCTCTTCTCATCATCTCGGAGTCACCTAGTGCAG | 11100 fluorescence intensity (a.u.)
TGCTTAGTTGCCCTACAACCTTTTTACAGGCTATATTTATCGGAGTCACCTAGTGCAG | 8110 fluorescence intensity (a.u.)
GGCATCCATCCTTTCTATGGTGATCTTCTTCATGTTCTGTCGGAGTCACCTAGTGCAG | 11200 fluorescence intensity (a.u.)
ATTTCGTTCTCATCAGAGTGCACTACCCCTGTTTGACATGCGGAGTCACCTAGTGCAG | 8220 fluorescence intensity (a.u.)
GCTTAGATACCACACTAATCGACATTCAACACATGTATTTCGGAGTCACCTAGTGCAG | 9670 fluorescence intensity (a.u.)
GCCTCCCCTCATCCACACCAACCATCTGCGCTGCGCTCCGCGGAGTCACCTAGTGCAG | 8510 fluorescence intensity (a.u.)
GGTAGTGGATGTTGTTTTGCGAAAAAGCCCCTCGTCTTCCCGGAGTCACCTAGTGCAG | 9540 fluorescence intensity (a.u.)
GCAGGTGTCCAGCCCAAGCGGTGGCCGTTGACCAGGGCGCCGGAGTCACCTAGTGCAG | 10600 fluorescence intensity (a.u.)
GGAGAGGGAGCGGGAGAGGGAGGATTGGAGGATGTGGGGACGGAGTCACCTAGTGCAG | 8940 fluorescence intensity (a.u.)
TCCTTAGCTCCGCGGATTTGTTCACCATCACCACCATCACCGGAGTCACCTAGTGCAG | 8780 fluorescence intensity (a.u.)
CCCGAACAGCCACCGCCGCCGCCGCCGCCGCCGATCCATGCGGAGTCACCTAGTGCAG | 10100 fluorescence intensity (a.u.)
GTTGTCGCCGCCGCCATGCTTTCGCTCGCCACCTCCTCCACGGAGTCACCTAGTGCAG | 9140 fluorescence intensity (a.u.)
ACATGCAACAGTGTGTCGTGCTTGTATTTCTGTTATCTGACGGAGTCACCTAGTGCAG | 8660 fluorescence intensity (a.u.)
AGGAGAGTCTCGTCCCATTCGGATGCCCTAGCTCAAGTCCCGGAGTCACCTAGTGCAG | 8310 fluorescence intensity (a.u.)
GGTGTTTTTTTACCCTTTATTCCTTTATATTTATATAACACGGAGTCACCTAGTGCAG | 9990 fluorescence intensity (a.u.)

Sequence | binding signal
TATATCACGGACCTACTTTTCCACGCCACATCCCTAAACTCGGAGTCACCTAGTGCAG | 8090 fluorescence intensity (a.u.)
TTTTCTCGGTGGCCTCTGTTGTGTCTGCCATCCTGCTATGCGGAGTCACCTAGTGCAG | 11200 fluorescence intensity (a.u.)
AACACACGACGACTTCTATCCATCCTATATACCGAACCCTCGGAGTCACCTAGTGCAG | 9960 fluorescence intensity (a.u.)
CTCGCGGTCCACGGCCACTCCGCCCGTCCCTCTGCTCCGCCGGAGTCACCTAGTGCAG | 11000 fluorescence intensity (a.u.)
AGGGGTGGCTCATCTTCTCTCTCTCCACTTCTCTCCTCCACGGAGTCACCTAGTGCAG | 10900 fluorescence intensity (a.u.)
TTCCACTGTGTCATGTGCAACAACCCACATGAGCGCGAGCCGGAGTCACCTAGTGCAG | 8100 fluorescence intensity (a.u.)
GACGAACACCGAACCTTAGATGTTGACTTGAGGGCATCACCGGAGTCACCTAGTGCAG | 8420 fluorescence intensity (a.u.)
TCCACTGCTCTCAAATCTCAATACTACTACTGTTCTATCGCGGAGTCACCTAGTGCAG | 10600 fluorescence intensity (a.u.)
CGCTCCGCGATTCGTGTTGGTTCTTTTTTTTGTTTCTTGGCGGAGTCACCTAGTGCAG | 8470 fluorescence intensity (a.u.)
GGGGTTTCCAAAATATGTGGGTTTTTTTGGTTGCAATGGACGGAGTCACCTAGTGCAG | 10700 fluorescence intensity (a.u.)
AGCTAATCTCTTTCTCCTTTAATTCATTATCCTTTGCATGCGGAGTCACCTAGTGCAG | 8070 fluorescence intensity (a.u.)
TGCGTGGGTCCCAACTCCGGCCGTCTTCCGCCGTTGGATCCGGAGTCACCTAGTGCAG | 8940 fluorescence intensity (a.u.)
AGTGGGGTCCTTGTTGTCAGGGTGTATGTGACTTCCAAATCGGAGTCACCTAGTGCAG | 8780 fluorescence intensity (a.u.)
TATGTCCATAATATACCGTTACTTTATCAATTGTTCTACACGGAGTCACCTAGTGCAG | 8930 fluorescence intensity (a.u.)
ATCTGGATCTGGAAAGCTTTTCTCTTGATTTGTTCGTAATCGGAGTCACCTAGTGCAG | 10000 fluorescence intensity (a.u.)
TAGCATTAGCATAAGGGAGGGAGGGAGGGAGGGATCATTACGGAGTCACCTAGTGCAG | 16300 fluorescence intensity (a.u.)
AAGCAAACTCCAATTCATTCATCAACCGCCGTCTCTTCCACGGAGTCACCTAGTGCAG | 9130 fluorescence intensity (a.u.)
ACTTGTTGAAAATTGATTGCTTTGTTGTTGTAGTGTTTACCGGAGTCACCTAGTGCAG | 10500 fluorescence intensity (a.u.)
GACCTCGGCGCCAACCTCGGCGTGCTCTCCGGCCTCATCACGGAGTCACCTAGTGCAG | 8060 fluorescence intensity (a.u.)
TCACCTTCTATTTACAATTTTGTTATGGCGTGTGACGAACCGGAGTCACCTAGTGCAG | 9540 fluorescence intensity (a.u.)
GCGTCCCGCACCCGTGGCTCAACCTGTTCGTCCCGGGCTCCGGAGTCACCTAGTGCAG | 9950 fluorescence intensity (a.u.)

Sequence | binding signal
TATCTCCCTTTTGGTTTATTTATACCCTCACCATCCAATCCGGAGTCACCTAGTGCAG | 8500 fluorescence intensity (a.u.)
CCACCCGTGGGCCTCCTCCTCTGCCGTCTCGCTTCGCCGACGGAGTCACCTAGTGCAG | 8860 fluorescence intensity (a.u.)
CGCGGGAATCGGCCGGCGACGTGGGGAGGTGGGGAGGAGACGGAGTCACCTAGTGCAG | 8900 fluorescence intensity (a.u.)
CGTCGGTGTGGTATGCTTGTCGCGCGGCGGCGCGGCCGTACGGAGTCACCTAGTGCAG | 8790 fluorescence intensity (a.u.)
AGATGACTCCGTTGACTTTTAAACACATGTTTGATAATTCCGGAGTCACCTAGTGCAG | 16200 fluorescence intensity (a.u.)
CCATACTTTTTAGGGTTTGTGATTTTGTCCCTACTTTTTACGGAGTCACCTAGTGCAG | 9160 fluorescence intensity (a.u.)
GGTGACCATTCCTAGTTTCCTACCCCTCATGTTTTTCTTTCGGAGTCACCTAGTGCAG | 17000 fluorescence intensity (a.u.)
CAGAAAGGGGTGGTAACTAAAGTACAGTAAACATTGTTTCCGGAGTCACCTAGTGCAG | 8500 fluorescence intensity (a.u.)
TTTTCTCGTCTCTTGTGTCTATTTGCTGTTGGATCCGCTACGGAGTCACCTAGTGCAG | 10500 fluorescence intensity (a.u.)
GTTAACTATCTCATCTATATTAGTTGGAGTTTAGAAATTTCGGAGTCACCTAGTGCAG | 8370 fluorescence intensity (a.u.)
AAATCATGCTCCGCGACCGCACCTCGTCGCCGCACCACTTCGGAGTCACCTAGTGCAG | 10400 fluorescence intensity (a.u.)
TCAAAATGTTGGTTGACTTTTGTCAGAGACGGTTGACTAGCGGAGTCACCTAGTGCAG | 10400 fluorescence intensity (a.u.)
CTATAGCTTCCAAGTTCCATTCCAGCTCGTATATCAGCTACGGAGTCACCTAGTGCAG | 8040 fluorescence intensity (a.u.)
GGCAATGTTTTAAGCTCCACGCTAGTAGTTATTGTTTTTTCGGAGTCACCTAGTGCAG | 9430 fluorescence intensity (a.u.)
AGCACCACCACCACCCCAGCGCCTCCTACTCCACCGGCTCCGGAGTCACCTAGTGCAG | 8830 fluorescence intensity (a.u.)
TTTCATAGTGTCGTTCATGGACCTTCAATTTTTAGTCATTCGGAGTCACCTAGTGCAG | 8100 fluorescence intensity (a.u.)
CCGCGTCGGCGCTCGCCGTCTCCGCCTCCGATCTCCACAGCGGAGTCACCTAGTGCAG | 8300 fluorescence intensity (a.u.)
TGTTTTTTTTCTTTCCGTATCTTTTTCTTTTTTTGGTTTTCGGAGTCACCTAGTGCAG | 19700 fluorescence intensity (a.u.)
CTTGCCCCACAACTCCACACACACACACAAGATTAGATACCGGAGTCACCTAGTGCAG | 8050 fluorescence intensity (a.u.)
ATCCTTCTGCATCCCGGGCACCTCCGGATCTACCGACAATCGGAGTCACCTAGTGCAG | 8760 fluorescence intensity (a.u.)
ATCTACCGTAAAAAGTTACCACCGGATACGCATCACTTCACGGAGTCACCTAGTGCAG | 8090 fluorescence intensity (a.u.)

Quoted from the listing for reference:
Sequence | binding signal
AGATGACTCCGTTGACTTTTAAACACATGTTTGATAATTCCGGAGTCACCTAGTGCAG | 16200 fluorescence intensity (a.u.)
CCATACTTTTTAGGGTTTGTGATTTTGTCCCTACTTTTTACGGAGTCACCTAGTGCAG | 9160 fluorescence intensity (a.u.)
GGTGACCATTCCTAGTTTCCTACCCCTCATGTTTTTCTTTCGGAGTCACCTAGTGCAG | 17000 fluorescence intensity (a.u.)
CAGAAAGGGGTGGTAACTAAAGTACAGTAAACATTGTTTCCGGAGTCACCTAGTGCAG | 8500 fluorescence intensity (a.u.)
TTTTCTCGTCTCTTGTGTCTATTTGCTGTTGGATCCGCTACGGAGTCACCTAGTGCAG | 10500 fluorescence intensity (a.u.)
GTTAACTATCTCATCTATATTAGTTGGAGTTTAGAAATTTCGGAGTCACCTAGTGCAG | 8370 fluorescence intensity (a.u.)
AAATCATGCTCCGCGACCGCACCTCGTCGCCGCACCACTTCGGAGTCACCTAGTGCAG | 10400 fluorescence intensity (a.u.)
TCAAAATGTTGGTTGACTTTTGTCAGAGACGGTTGACTAGCGGAGTCACCTAGTGCAG | 10400 fluorescence intensity (a.u.)
CTATAGCTTCCAAGTTCCATTCCAGCTCGTATATCAGCTACGGAGTCACCTAGTGCAG | 8040 fluorescence intensity (a.u.)
GGCAATGTTTTAAGCTCCACGCTAGTAGTTATTGTTTTTTCGGAGTCACCTAGTGCAG | 9430 fluorescence intensity (a.u.)
AGCACCACCACCACCCCAGCGCCTCCTACTCCACCGGCTCCGGAGTCACCTAGTGCAG | 8830 fluorescence intensity (a.u.)
TTTCATAGTGTCGTTCATGGACCTTCAATTTTTAGTCATTCGGAGTCACCTAGTGCAG | 8100 fluorescence intensity (a.u.)
CCGCGTCGGCGCTCGCCGTCTCCGCCTCCGATCTCCACAGCGGAGTCACCTAGTGCAG | 8300 fluorescence intensity (a.u.)

Further records follow:

Sequence | binding signal
GGAGGCCTAGGTGGTGGTGGTGGTCTTGGTGGAGGAGGGGCGGAGTCACCTAGTGCAG | 28600 fluorescence intensity (a.u.)
GTAAGCCTGCTCTTTCCATGTGCTTATGTGCTGATATGGCCGGAGTCACCTAGTGCAG | 10500 fluorescence intensity (a.u.)
AGAGTAAAACGAGTTTGTTCAGCTTTGTGGAGCTATGTATCGGAGTCACCTAGTGCAG | 8600 fluorescence intensity (a.u.)
CCTCTGCTTTTTTTCTTGTTTTTTTTAAACCTTTCTCGTCCGGAGTCACCTAGTGCAG | 11300 fluorescence intensity (a.u.)
CCTCGCCGCCGTCCACCTCCCCACCCGCTGCCGCCTCCGCCGGAGTCACCTAGTGCAG | 10000 fluorescence intensity (a.u.)
CGTCCTACTCACCGTCGCATCATCCACTGATCCGGCCGGCCGGAGTCACCTAGTGCAG | 9180 fluorescence intensity (a.u.)
ATTCGTTTGATGTTATGTTTTGTTCTCGCTTTGGTTGGCACGGAGTCACCTAGTGCAG | 9470 fluorescence intensity (a.u.)
TCTTAGCTCCGCCGTTGCCTTTGCCGTTGCCGCTGCCGTACGGAGTCACCTAGTGCAG | 9390 fluorescence intensity (a.u.)
TTGTTTTGAGGTCGGATGGGTGCCATGTCTGTATATTTTCCGGAGTCACCTAGTGCAG | 8600 fluorescence intensity (a.u.)
TCTACATCATGTTATCCGCGTCACATTACTAAAATCATAACGGAGTCACCTAGTGCAG | 9450 fluorescence intensity (a.u.)
GCACGCCTAGTTTGTGTCACCAAGTCCCTATTAAATCCTTCGGAGTCACCTAGTGCAG | 9330 fluorescence intensity (a.u.)
TCGTGTCTCGGCTGCTCCGTATGATTCTTCCGTGAACTGACGGAGTCACCTAGTGCAG | 9100 fluorescence intensity (a.u.)
AAACTACAGCTGCACCATGTGCCCTGATCATACAGAGTATCGGAGTCACCTAGTGCAG | 8130 fluorescence intensity (a.u.)
GGTGCATGAGCATACTGTCCGGAAGTACTTGCTCATTTTGCGGAGTCACCTAGTGCAG | 8660 fluorescence intensity (a.u.)
ACTTATGTTGCTGTTTCCAGTTATATATATATATATCCTTCGGAGTCACCTAGTGCAG | 9590 fluorescence intensity (a.u.)
CCATGTAAGCTATTGTAGTCTCCTGATTCGTTCATGTCGACGGAGTCACCTAGTGCAG | 8680 fluorescence intensity (a.u.)
GATAGGTGCATGTGTATCAGTTTGTCAGAGGCTGCCCGTCCGGAGTCACCTAGTGCAG | 8400 fluorescence intensity (a.u.)
TCCCGCCTGATTCTTTTTTTTTTTGGTCGTGAGTTCTTCCCGGAGTCACCTAGTGCAG | 9580 fluorescence intensity (a.u.)
CTCCTTACCGATCTTCGTTTCGTTTCATACTCCGTACTACCGGAGTCACCTAGTGCAG | 14000 fluorescence intensity (a.u.)
GTTCGAGAACCCGTCCACGTTCATCCCAAGCATATGCATCCGGAGTCACCTAGTGCAG | 8340 fluorescence intensity (a.u.)
AATACTCATCGTTCCTGATCCAAGTGTTTAATTTTACAGCCGGAGTCACCTAGTGCAG | 9930 fluorescence intensity (a.u.)
